# Results reported in PubChem BioAssay AID624297 (National Center for Advancing Translational Sciences (NCATS), 2012).
# Among all 340,000 compounds or so, about 6,200 (1.8%) were called active. Inconclusive results, whose numbers are uncertain, are shown with a selection of clear calls. Calls follow the shape of the dose curve; as a rule, active = well fitted activation curve with a large enough effect; inconclusive = small, poorly fitted or top-dose-only effect; inactive = no such curve, though single readings can be large or run the other way. A potency beside an inconclusive call is a rough fit, not a confirmed value.
# Test: A quantitative high throughput screen for small molecules that induce DNA re-replication in SW480 colon adenocarcinoma cells. Also: nearly all actives have a fitted effect of over 55% in size. As to re-replication activation: % of control where 0% means no effect.
# Details: Hoechst DNA content imaging, 48 h; re-replication activation: at 46.1 µM (top of the series) unless noted
# Procedure, shortened: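 Per well, 250 cells were exposed to pinned compound for 48 hr. Nuclear DNA was visualised with Hoechst (40 min, 37 C) and total object intensity recorded by fluorescence scanning.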
# Potency is read from the fitted curve at half-maximal effect.
SMILES,Potency,re-replication activation
CCOc1ccc(S(=O)(=O)N2CCC(C(=O)NCc3ccccc3CN3CCCC3)CC2)cc1,"inconclusive: 29.1 µM [activator, single point]",–
Cc1cc(C)n(CC(=O)O)n1,–,inactive: -8.71%
COc1ccc(COc2cccc(C=O)c2)cc1,"inconclusive: 3.26 µM [activator, single point]",–
COC(=O)CCCN1C(=O)c2cccc3cccc(c23)C1=O,"inconclusive: 0.0082 µM [activator, full curve, poor fit]",–
NCc1ccccc1,"inconclusive: 0.184 µM [activator, single point]",–
COc1ccc(C2CC(c3ccc(C(F)(F)F)cc3)=NN2c2ccc(S(N)(=O)=O)cc2)cc1 (configuration not stated),active: 0.517 µM,–
COc1cc(C(=O)Nc2nnc(-c3sccc3C)s2)cc(OC)c1OC,"inconclusive: 35.5 µM [activator, single point]",–
CCOC(=O)CN=C1CC(C)(C)CC2=C1Sc1ncnc(N(C)C)c1N2,"inconclusive: 20.6 µM [activator, single point]",–
COC(=O)c1c(-c2ccncc2)csc1NC(=O)c1ccoc1C,–,inactive: 0.221%
O=C(CCC(=O)c1cccs1)OCc1ccc([N+](=O)[O-])cc1,–,inactive: -3.89%
Cc1cccc(OCCC(=O)Nc2ccc(Cl)cc2F)c1,–,inactive: -1.54%
Cc1ccc(NC(=S)/N=C(\N)Nc2nc(C)c3ccccc3n2)cc1C,–,inactive: 0.895%
CN(C(=O)COC(=O)c1ccccc1OCc1ccc(Cl)cc1)c1c(N)n(Cc2ccccc2)c(=O)[nH]c1=O,"inconclusive: 29.1 µM [activator, single point]",–
COc1ccc(N2CCN(c3nc(-c4cccs4)nc4ccccc34)CC2)cc1,–,inactive: 1.99%
COc1ccc(O)c(C(=O)c2cnc3c(c2)c(=O)[nH]c(=O)n3C)c1,"inconclusive: 20.6 µM [activator, single point]",–
N#CNC(=Nc1cccc(F)c1)SCc1ccccc1F,–,inactive: 3.44%
O=C(COC(=O)/C=C/c1ccc(C(F)(F)F)cc1)Nc1ccc2[nH]c(=O)[nH]c2c1,"inconclusive: 29.1 µM [activator, partial curve, poor fit]",–
CCOC(=O)C1CCCCN1Cc1ccc(C(F)(F)F)cc1 (configuration not stated),–,inactive: -9.69%
O=S(=O)(CCc1nc2ccccc2[nH]1)c1ccc(Br)cc1,"inconclusive: 29.1 µM [activator, partial curve, poor fit]",–
Cc1cccc(N2CCN(C(=O)C3CCN(S(=O)(=O)c4c(C)noc4C)CC3)CC2)c1C,–,inactive: -33.2%
Cc1ccc(C2C3CN(C(C)C)CC=C3C(C#N)=C(N)C2(C#N)C#N)cc1 (configuration not stated),–,inactive: -6.86%
COC(=O)c1c(C)[nH]c(/C=N/Nc2ccccc2)c1C,"inconclusive: 3.66 µM [activator, full curve, poor fit]",–
CC(C)c1ccc(-n2cccc2/C=C2/C(=N)N3C=CSC3=NC2=O)cc1,"inconclusive: 32.6 µM [activator, partial curve, poor fit]",–
CCN(CC)c1ccc(NC(=O)Nc2ccccc2C(F)(F)F)cc1,"inconclusive: 29.1 µM [activator, partial curve, poor fit]",–

# Quoted at random: two compounds from above.
SMILES,Potency,re-replication activation
COc1ccc(O)c(C(=O)c2cnc3c(c2)c(=O)[nH]c(=O)n3C)c1,"inconclusive: 20.6 µM [activator, single point]",–
Cc1cccc(N2CCN(C(=O)C3CCN(S(=O)(=O)c4c(C)noc4C)CC3)CC2)c1C,–,inactive: -33.2%

# Next results

SMILES,Potency,re-replication activation
O=c1[nH]c(COc2ccccc2)nc2ccccc12,"inconclusive: 29.1 µM [activator, single point]",–
COCc1cc(CN(C)C(=O)c2oc3c(F)cccc3c2C)[nH]n1,"inconclusive: 0.13 µM [activator, full curve, poor fit]",–
OC(COc1ccc(OCc2ccccc2)cc1)CN1CCOCC1 (configuration not stated),"inconclusive: 29.1 µM [activator, single point]",–
CCC(C)(C)c1ccc(OCCCC[n+]2ccccc2)c(C(C)(C)CC)c1,"inconclusive: 32.6 µM [activator, single point]",–
COc1cc2nc(/C=C/c3ccc(N(C)C)cc3)sc2cc1SC,active: 20.6 µM,–
COc1ccc(C(=O)Nc2ccncc2)cc1[N+](=O)[O-],–,inconclusive: 33.6% [activator]
O=C(/C=C/c1ccc(Cl)c([N+](=O)[O-])c1)c1cccnc1,"inconclusive: 0.326 µM [activator, partial curve, poor fit]",–
CCCCNC(=O)COC(=O)c1ccc(N(C)C)cc1,–,inactive: -0.311%
C#CCNC(=O)C1=C[C@H](c2ccc(Br)cc2)C[C@H](OCc2ccc(CO)cc2)O1,"inconclusive: 6.51 µM [activator, single point]",–
Cc1nnnn1/C(=C\c1ccccc1)C(=O)OCC(=O)N(C)C1CCS(=O)(=O)C1 (configuration not stated),"inconclusive: 29.1 µM [activator, single point]",–
COC(=O)c1ccc(Cn2c(O)c(N=NC(N)=S)c3ccccc32)o1,active: 23.1 µM,–
CCc1ccc(NC(=O)c2ccc3c(=O)n4c(nc3c2)CCCCC4)cc1,–,inactive: 16.4%
Cc1nc2ccccn2c1C(=O)NNS(=O)(=O)c1ccc(C(C)(C)C)cc1,–,inactive: -3.02%
CS(=O)(=O)N(CC(=O)N1CCOCC1)c1cccc(Cl)c1Cl,–,inconclusive: 32.3% [activator]
Cc1cccc(C(=O)Nc2ccccc2C(=O)OCc2c(C)noc2C)c1,–,inactive: 11.4%
Cc1ccc(C(=O)NNC(=O)c2cc3cc4ccccc4nc3s2)cc1,"inconclusive: 16.4 µM [activator, single point]",–
CCCC(=O)Nc1sc(C)c(-c2ccc(OC)cc2)c1C#N,"inconclusive: 3.66 µM [activator, single point]",–
CNC(=S)N1CCN(c2nc(-c3cccc(OC)c3)cs2)CC1,"inconclusive: 6.51 µM [activator, single point]",–
CC(C)N(Cc1nc(-c2ccc(Cl)cc2)no1)C(=O)c1cccs1,"inconclusive: 20.6 µM [activator, single point]",–
CN(C(=O)/C=C/c1ccc(F)cc1)C1CCCCC1,"inconclusive: 18.4 µM [activator, single point]",–
CCOC(=O)CC1C(=O)NCCN1C(=O)c1cccc(OC)c1 (configuration not stated),–,inactive: -14.9%
Cc1ccc(N2CC(C(=O)Nc3ccc(S(=O)(=O)Nc4nccc(C)n4)cc3)CC2=O)cc1 (configuration not stated),"inconclusive: 29.1 µM [activator, single point]",–
CCN1CCN(S(=O)(=O)c2ccc(Cl)c(C(=O)Nc3cc(Cl)ccc3N3CCOCC3)c2)CC1,"inconclusive: 16.4 µM [activator, single point]",–

# Single records (already shown).
# `CCN(CC)c1ccc(NC(=O)Nc2ccccc2C(F)(F)F)cc1` in the list: Potency: inconclusive: 29.1 µM [activator, partial curve, poor fit]
# `Cc1ccc(NC(=S)/N=C(\N)Nc2nc(C)c3ccccc3n2)cc1C` in the list: re-replication activation: inactive: 0.895%
